Taken from: PubChem BioAssay AID1671195 (Yale University, 2021)
The deposit covers about 22,000 reagents; below is a random part of them. In the full data, about 1,510 (6.9%) got an active call. 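Active includes knockdowns raising or lowering LDL uptake; positive z-scores mean more uptake, negative mean less.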 Unmarked entries are inactive.

Test: 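Knockdowns that increase or decrease uptake of fluorescent LDL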 (primary screen)
Cell system: human Huh7 hepatoma cells
Reagents: siRNA pool against human genes, 18 nM
Timing: about 2 to 2.5 days of knockdown, then 8 h LDL uptake
Challenge: DiI-labelled LDL at 30 µg/ml for 8 h, in lipoprotein-deficient serum medium
Detection: 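Fluorescent LDL signal imaged in cells, scaled to the plate median, robust z-score for each replicate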
Reading the numbers: robust z-score: higher = more LDL uptake after knockdown
Hit rule: 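a gene counts as active if at least two replicate z-scores exceed ±2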

target | robust z-score, replicate 1 | robust z-score, replicate 2 | robust z-score, replicate 3
LIAS | 0.878 | 0.266 | 0.826
LOC387940 (retired record) | 0.423 | 0.454 | 0.189
BTF3 | -0.979 | -0.749 | -0.97
ALK | -0.554 | -0.823 | -0.886
GJB3 | -0.463 | -0.168 | -0.565
ITPR1 | 0.802 | 0.305 | 0.345
AHSA2P | 0.812 | 0.672 | 1.63
NSUN7 | 0.411 | -0.042 | -0.118
KRABD3 | -0.711 | -0.0237 | -0.237
FPR1 | -0.743 | 0.279 | -0.269
PIGF | -0.396 | -0.167 | -0.14
CALCA | 0.477 | 0.426 | -0.197
CDH9 | 1.19 | 0.593 | 0.727
DLGAP4 | -0.252 | -0.733 | -0.486
POLE4 | -0.557 | -1.75 | -2.02
NRTN | -1.37 | -0.516 | -1.33
IL1A | 1.49 | 2.24 | 1.85
BBS10 | 0.745 | 0.146 | 0.379
POLQ | -1.05 | -0.973 | -0.753
NINL | -1.39 | -0.412 | -1.05
STC2 | -0.00276 | 2.38 | 0.0725
RNF166 | -0.713 | -0.107 | -0.594
KRT35 | -0.575 | 1.04 | 0.888
LOC393076 (retired record) | -1.12 | -1.05 | -0.754
LOC400553 | 0.588 | 0.722 | 1.18
RTKN2 | 2.53 (active) | 2 | 0.743
LOC387826 (retired record) | 0.17 | 0.0112 | 0.414
NPEPL1 | -1.55 | -0.668 | -1.1
KDM4D | -0.0273 | 0.81 | 0.43
IGF2BP2 | 0.653 | -0.325 | -0.31
GTF2F1 | -1.34 | -1.65 | -1.75
TELO2 | 1.59 | -0.547 | -0.978
SF3B2 | -1.13 | 0.239 | -0.29
CDC42EP3 | 1.35 | 0.924 | -0.486
RMDN2 | 0.574 | -0.0239 | 0.176
KMT2E | 0.314 | -0.537 | -0.292
LINC03103 | -0.909 | -1.06 | -0.801
FIBIN | 0.515 | -0.401 | 0.198
LOC440523 (retired record) | -1.66 | -1.65 | -1.79
OR51Q1 | -1.93 | -1.96 | -1.75
SLC6A1 | -0.502 | -0.295 | -0.408
GLTPD2 | -0.678 | -0.513 | -0.346
RNF113A | 0.967 | -1.12 | -0.885
TP53 | -0.721 | -0.827 | -1.07
BPIFB6 | 0.0459 | 0.0838 | -0.313
DNPEP | 0.0394 | -0.244 | -0.285
LOC388170 (retired record) | -1.88 | -1.64 | -1.83
SNX5 | 0.435 | -0.197 | 0.347
CHRNA6 | 0.64 | 0.962 | 0.996
LOC388922 (retired record) | -0.157 | 0.164 | 0.00468
ZBTB25 | 2.35 (active) | 2.81 | 1.83
ENTPD4 | 0.636 | 0.504 | -0.182
ITGBL1 | 0.212 | -0.403 | 0.386
F11 | -0.298 | -0.598 | -0.394
SYNM | -1.78 | -1.92 | -1.32
PTPN20 | 0.606 | -0.189 | 0.375
RORA | 0.551 | 0.256 | -0.197
LOC440094 (retired record) | 0.68 | 0.824 | 0.824
HDDC2 | 2.53 (active) | 2.57 | -1.15
LOC441069 (retired record) | 0.665 | 1.67 | 1.48
SLC24A3 | -0.308 | -0.893 | -0.494
GPRC6A | 0.373 | -0.877 | 0.98
CARINH | -0.145 | -0.538 | -0.0675
SPATA31H1 | 1.31 | 1.59 | 1.51
RBM27 | -0.231 | 0.0305 | 0.636
SRA1 | 0.0376 | -0.0472 | -0.884
NRBP2 | -1.07 | -1.33 | -1.06
APH1A | 0.663 | 1.37 | 0.703
